Measured values published in the supplement of paper PMC6411743.
± gives the standard deviation of the averaged measurements. The entries are a selection whose mix differs from that of the whole data set. Most values lie at the level of the controls, where differences are scatter.

Amino acid sequences for entries named in this document (tags omitted). A change or cut given only in a name is not applied to a line headed by its entry.
UniProt Q9BRK5: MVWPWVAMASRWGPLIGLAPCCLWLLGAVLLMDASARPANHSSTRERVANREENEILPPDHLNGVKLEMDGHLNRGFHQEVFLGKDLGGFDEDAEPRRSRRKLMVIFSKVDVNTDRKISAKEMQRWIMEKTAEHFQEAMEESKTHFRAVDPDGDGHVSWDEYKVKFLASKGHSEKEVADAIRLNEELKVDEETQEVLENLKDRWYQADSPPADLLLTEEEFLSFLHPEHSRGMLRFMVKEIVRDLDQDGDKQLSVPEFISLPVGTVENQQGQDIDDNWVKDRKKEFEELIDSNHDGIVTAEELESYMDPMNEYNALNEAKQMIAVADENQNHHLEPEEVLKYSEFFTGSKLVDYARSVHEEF
UniProt Q9BQ15: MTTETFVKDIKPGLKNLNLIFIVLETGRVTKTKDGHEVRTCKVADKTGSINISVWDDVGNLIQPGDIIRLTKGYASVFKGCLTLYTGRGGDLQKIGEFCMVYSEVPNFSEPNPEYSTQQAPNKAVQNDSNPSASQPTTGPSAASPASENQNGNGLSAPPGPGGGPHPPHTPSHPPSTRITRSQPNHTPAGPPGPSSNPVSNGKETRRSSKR
UniProt Q99795: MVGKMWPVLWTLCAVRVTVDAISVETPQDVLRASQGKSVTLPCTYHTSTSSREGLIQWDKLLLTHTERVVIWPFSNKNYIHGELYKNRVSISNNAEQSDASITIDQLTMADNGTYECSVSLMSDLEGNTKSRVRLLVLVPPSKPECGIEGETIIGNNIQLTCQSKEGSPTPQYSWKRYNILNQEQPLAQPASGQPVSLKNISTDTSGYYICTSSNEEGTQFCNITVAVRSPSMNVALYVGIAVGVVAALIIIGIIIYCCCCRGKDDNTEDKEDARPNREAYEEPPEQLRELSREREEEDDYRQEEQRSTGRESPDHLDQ
UniProt Q9BPZ3: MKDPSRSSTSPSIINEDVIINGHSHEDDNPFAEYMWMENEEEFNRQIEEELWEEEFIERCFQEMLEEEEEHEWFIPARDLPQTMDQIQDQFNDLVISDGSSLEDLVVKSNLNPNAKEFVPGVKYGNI
UniProt Q9BQA9: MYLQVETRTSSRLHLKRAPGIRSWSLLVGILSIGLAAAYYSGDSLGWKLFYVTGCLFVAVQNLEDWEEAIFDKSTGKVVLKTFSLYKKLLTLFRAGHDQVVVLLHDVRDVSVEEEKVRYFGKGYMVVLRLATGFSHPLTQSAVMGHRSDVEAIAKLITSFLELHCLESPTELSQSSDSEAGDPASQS
UniProt Q99996, whole entry: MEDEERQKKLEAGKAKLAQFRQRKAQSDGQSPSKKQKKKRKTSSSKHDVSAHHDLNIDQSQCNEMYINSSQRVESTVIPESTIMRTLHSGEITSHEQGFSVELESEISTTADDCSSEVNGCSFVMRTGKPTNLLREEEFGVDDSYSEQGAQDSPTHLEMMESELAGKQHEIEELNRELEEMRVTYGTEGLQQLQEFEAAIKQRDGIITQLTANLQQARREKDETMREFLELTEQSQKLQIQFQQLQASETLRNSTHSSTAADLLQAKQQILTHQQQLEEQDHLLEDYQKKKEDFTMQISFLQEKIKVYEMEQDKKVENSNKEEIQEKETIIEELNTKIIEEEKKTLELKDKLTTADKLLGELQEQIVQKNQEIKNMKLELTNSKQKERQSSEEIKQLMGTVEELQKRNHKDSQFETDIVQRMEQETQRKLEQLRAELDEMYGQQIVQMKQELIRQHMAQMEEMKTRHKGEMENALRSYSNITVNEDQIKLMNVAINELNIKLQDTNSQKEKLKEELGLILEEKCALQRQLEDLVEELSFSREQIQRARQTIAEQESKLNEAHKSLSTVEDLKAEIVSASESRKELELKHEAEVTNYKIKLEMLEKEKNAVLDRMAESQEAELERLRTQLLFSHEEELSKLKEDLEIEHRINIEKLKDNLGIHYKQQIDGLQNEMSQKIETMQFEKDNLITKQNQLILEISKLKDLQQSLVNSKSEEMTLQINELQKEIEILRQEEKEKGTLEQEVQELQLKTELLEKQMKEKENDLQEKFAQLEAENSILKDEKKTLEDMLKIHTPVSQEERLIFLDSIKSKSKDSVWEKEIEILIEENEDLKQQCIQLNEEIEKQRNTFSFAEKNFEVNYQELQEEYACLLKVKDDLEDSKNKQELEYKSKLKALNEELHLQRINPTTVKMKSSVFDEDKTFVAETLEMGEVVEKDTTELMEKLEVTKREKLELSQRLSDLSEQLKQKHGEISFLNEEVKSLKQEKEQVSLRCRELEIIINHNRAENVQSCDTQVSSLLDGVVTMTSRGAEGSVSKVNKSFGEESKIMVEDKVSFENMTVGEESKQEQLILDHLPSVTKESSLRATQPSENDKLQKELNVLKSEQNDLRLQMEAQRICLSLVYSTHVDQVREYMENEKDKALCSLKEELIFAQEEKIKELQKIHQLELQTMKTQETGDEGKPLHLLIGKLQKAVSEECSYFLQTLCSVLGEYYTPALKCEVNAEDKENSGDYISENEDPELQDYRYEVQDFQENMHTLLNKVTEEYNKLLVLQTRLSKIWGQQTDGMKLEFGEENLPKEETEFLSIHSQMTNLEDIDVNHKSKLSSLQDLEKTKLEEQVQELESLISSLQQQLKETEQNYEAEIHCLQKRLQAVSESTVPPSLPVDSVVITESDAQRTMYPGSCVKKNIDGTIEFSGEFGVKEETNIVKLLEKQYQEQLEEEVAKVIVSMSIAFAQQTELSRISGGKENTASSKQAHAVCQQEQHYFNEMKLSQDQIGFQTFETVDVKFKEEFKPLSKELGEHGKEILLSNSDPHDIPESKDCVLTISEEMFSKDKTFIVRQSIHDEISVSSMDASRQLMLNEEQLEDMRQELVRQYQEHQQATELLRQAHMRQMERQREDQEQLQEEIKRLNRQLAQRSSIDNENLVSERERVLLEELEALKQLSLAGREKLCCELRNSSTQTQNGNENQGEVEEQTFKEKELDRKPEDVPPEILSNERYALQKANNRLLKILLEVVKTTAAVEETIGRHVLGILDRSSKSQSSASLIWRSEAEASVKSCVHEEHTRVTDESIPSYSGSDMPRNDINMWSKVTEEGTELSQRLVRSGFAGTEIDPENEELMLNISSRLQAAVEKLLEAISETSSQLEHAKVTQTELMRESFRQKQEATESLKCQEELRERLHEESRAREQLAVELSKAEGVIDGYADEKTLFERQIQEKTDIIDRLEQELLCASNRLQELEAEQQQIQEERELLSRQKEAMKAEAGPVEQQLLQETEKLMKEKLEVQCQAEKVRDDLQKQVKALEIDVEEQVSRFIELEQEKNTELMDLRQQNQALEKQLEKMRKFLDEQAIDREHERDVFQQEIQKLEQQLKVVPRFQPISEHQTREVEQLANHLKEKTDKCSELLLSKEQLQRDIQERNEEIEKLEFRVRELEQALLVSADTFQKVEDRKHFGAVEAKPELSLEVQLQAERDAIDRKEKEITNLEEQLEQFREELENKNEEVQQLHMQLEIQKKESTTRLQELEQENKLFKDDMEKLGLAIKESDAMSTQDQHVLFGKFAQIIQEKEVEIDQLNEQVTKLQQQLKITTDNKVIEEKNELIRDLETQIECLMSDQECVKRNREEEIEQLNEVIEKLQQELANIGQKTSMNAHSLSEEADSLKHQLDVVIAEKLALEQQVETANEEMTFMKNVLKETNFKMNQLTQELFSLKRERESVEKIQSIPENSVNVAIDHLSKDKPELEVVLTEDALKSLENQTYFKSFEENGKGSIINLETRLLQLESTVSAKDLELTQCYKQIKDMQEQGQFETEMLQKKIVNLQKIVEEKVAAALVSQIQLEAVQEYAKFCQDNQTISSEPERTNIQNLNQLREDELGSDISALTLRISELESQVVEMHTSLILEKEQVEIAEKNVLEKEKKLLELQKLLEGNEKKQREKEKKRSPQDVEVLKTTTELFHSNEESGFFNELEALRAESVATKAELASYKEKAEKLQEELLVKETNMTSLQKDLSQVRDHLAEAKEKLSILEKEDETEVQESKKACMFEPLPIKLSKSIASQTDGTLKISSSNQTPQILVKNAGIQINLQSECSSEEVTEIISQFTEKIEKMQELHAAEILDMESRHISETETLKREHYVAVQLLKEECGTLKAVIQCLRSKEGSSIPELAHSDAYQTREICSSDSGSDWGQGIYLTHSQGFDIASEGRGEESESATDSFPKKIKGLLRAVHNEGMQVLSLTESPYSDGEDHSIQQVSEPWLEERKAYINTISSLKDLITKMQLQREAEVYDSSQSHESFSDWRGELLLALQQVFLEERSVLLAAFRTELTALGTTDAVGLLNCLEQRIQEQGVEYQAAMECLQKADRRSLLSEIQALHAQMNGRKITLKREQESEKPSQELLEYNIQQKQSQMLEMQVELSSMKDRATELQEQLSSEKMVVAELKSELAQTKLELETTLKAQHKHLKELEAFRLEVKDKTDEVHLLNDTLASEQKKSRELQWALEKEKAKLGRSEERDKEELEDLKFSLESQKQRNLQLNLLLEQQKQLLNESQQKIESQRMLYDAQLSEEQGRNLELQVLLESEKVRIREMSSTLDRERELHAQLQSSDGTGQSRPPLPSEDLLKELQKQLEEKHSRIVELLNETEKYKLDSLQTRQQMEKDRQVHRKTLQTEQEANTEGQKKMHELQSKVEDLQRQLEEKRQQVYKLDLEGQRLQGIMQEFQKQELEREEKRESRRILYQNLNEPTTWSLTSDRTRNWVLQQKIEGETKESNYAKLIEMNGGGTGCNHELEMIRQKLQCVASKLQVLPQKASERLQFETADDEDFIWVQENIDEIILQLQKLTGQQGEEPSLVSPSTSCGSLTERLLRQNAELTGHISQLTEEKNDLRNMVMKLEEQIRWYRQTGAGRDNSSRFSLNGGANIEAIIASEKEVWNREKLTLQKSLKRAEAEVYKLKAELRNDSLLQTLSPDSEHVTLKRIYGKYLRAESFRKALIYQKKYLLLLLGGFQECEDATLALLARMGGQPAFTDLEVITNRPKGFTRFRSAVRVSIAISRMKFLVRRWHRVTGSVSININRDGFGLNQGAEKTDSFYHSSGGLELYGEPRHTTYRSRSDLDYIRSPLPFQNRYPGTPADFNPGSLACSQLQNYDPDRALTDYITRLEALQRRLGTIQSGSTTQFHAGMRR
UniProt Q9BTT6: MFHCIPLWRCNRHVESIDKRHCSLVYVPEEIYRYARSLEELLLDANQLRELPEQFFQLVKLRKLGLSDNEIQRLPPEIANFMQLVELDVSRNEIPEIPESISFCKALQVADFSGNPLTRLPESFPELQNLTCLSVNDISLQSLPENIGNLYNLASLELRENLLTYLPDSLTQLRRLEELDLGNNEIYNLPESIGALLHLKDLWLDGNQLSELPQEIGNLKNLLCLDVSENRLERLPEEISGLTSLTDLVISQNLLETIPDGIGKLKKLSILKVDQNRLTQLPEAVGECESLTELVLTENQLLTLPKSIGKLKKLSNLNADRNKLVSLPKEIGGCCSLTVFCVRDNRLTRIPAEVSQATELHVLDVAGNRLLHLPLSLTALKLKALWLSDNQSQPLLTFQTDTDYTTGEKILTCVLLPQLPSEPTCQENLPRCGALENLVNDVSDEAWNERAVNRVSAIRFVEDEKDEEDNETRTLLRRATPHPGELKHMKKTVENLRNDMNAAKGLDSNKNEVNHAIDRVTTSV
UniProt Q9BTL3: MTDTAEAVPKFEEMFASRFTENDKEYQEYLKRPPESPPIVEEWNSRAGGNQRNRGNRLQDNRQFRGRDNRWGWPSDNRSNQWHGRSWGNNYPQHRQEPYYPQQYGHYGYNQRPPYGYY
UniProt Q9BS26: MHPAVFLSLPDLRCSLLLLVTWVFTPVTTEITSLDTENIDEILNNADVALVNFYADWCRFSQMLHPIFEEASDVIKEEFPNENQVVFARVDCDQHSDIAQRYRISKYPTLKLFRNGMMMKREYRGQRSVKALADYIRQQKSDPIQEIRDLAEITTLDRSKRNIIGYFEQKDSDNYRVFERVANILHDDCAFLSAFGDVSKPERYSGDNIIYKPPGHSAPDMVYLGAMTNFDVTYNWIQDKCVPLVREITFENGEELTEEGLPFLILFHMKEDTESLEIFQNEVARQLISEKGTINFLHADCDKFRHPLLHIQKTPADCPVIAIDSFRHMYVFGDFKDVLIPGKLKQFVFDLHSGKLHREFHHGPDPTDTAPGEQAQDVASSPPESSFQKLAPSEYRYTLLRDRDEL
UniProt Q9BTE6: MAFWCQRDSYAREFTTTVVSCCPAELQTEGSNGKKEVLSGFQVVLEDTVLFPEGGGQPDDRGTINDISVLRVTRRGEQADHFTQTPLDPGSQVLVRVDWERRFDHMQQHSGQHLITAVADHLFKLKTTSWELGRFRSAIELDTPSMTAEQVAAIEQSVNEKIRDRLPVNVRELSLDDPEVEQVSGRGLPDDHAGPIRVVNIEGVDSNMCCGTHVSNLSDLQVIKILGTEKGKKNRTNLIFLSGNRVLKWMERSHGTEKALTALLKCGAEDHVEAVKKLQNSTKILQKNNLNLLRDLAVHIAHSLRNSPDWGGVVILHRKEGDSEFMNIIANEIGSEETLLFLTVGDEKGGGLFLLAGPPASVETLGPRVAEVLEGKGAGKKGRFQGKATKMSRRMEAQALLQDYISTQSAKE

Compound: Nc1ncnc2c1ncn2[C@@H]1O[C@H](COP(=O)(O)OP(=O)(O)OP(=O)(O)O)[C@@H](O)[C@H]1O [adenosine triphosphate]
Assay: NP40-soluble protein abundance relative to vehicle (solubility fold change) (ratio); higher = more soluble protein in presence of ATP
Outline: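 Across three independent experiments, values are fold changes against the detergent-processed vehicle for each replicate, based on vsn-normalised intensities. The samples were Jurkat crude lysate treated with eight concentrations (0.1 to 10 mM) for 10 min at room temperature and then 3 min at 37 °C. Lysate was solubilised with 0.8% NP40 and benzonase, ultracentrifuged, and the supernatant analysed by TMT-labelled LC-MS/MS.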

Target	NP40-soluble protein abundance (concentration: 0.1mM)	NP40-soluble protein abundance (concentration: 0.5mM)	NP40-soluble protein abundance (concentration: 1mM)	NP40-soluble protein abundance (concentration: 2mM)	NP40-soluble protein abundance (concentration: 4mM)	NP40-soluble protein abundance (concentration: 6mM)	NP40-soluble protein abundance (concentration: 8mM)	NP40-soluble protein abundance (concentration: 10mM)
POLR3C (UniProt Q9BUI4)	1.03 ± 0.036	1 ± 0.022						
UniProt Q9BV73 and related entries	0.97 ± 0.034	0.966 ± 0.061						
UniProt Q9BRX8 and related entries	1.06 ± 0.12	1.03 ± 0.086						
SDF4 (UniProt Q9BRK5)	0.985 ± 0.057	0.953 ± 0.026						
CCT7 (UniProt Q99832)	0.932 ± 0.1	0.989 ± 0.078						
NABP2 (UniProt Q9BQ15)	0.892 ± 0.11	1.01 ± 0.17						
GPA33 (UniProt Q99795)	0.952 ± 0.065	0.979 ± 0.12						
GTPBP4 (UniProt Q9BZE4)	1.08 ± 0.052	1.17 ± 0.019						
UniProt Q9BX66 and related entries	0.948 ± 0.058	0.932 ± 0.13						
TARS2 (UniProt Q9BW92)	1.07 ± 0.074	1.04 ± 0.048						
UniProt Q9BT22 and related entries	1.03 ± 0.06	1.03 ± 0.053						
UniProt Q99683 and related entries	1.01 ± 0.052	1.032 ± 0.0062						
MND1 (UniProt Q9BWT6)	0.936 ± 0.058	0.886 ± 0.092						
PAIP2 (UniProt Q9BPZ3)	0.979 ± 0.033	0.946 ± 0.034						
CABLES2 (UniProt Q9BTV7)	1.15 ± 0.066	1.09 ± 0.19						
UniProt Q9BXK5 and related entries	0.988 ± 0.023	0.967 ± 0.024	0.958 ± 0.041	0.97 ± 0.011	0.957 ± 0.028	0.988 ± 0.021	0.926 ± 0.031	0.916 ± 0.052
PI4K2A (UniProt Q9BTU6)	1.03 ± 0.065	1.04 ± 0.055						
UniProt Q9BRQ0 and related entries	0.89 ± 0.13	0.896 ± 0.13	0.931 ± 0.11	0.887 ± 0.18	0.898 ± 0.15	0.944 ± 0.19	0.865 ± 0.15	0.909 ± 0.29
DPCD (UniProt Q9BVM2)	0.983 ± 0.028	1.04 ± 0.044	0.965 ± 0.024	1.02 ± 0.045	0.969 ± 0.01	0.933 ± 0.048	0.929 ± 0.069	1.01 ± 0.087
VRK1 (UniProt Q99986)	1.09 ± 0.084	1.38 ± 0.062	1.39 ± 0.026	1.43 ± 0.021	1.44 ± 0.039	1.51 ± 0.057	1.52 ± 0.031	1.48 ± 0.063
RNF5 (UniProt Q99942)	0.956 ± 0.038	0.935 ± 0.056						
TMEM109 (UniProt Q9BVC6)	0.912 ± 0.038	0.811 ± 0.12	0.943 ± 0.051	0.962 ± 0.066	0.999 ± 0.082	0.915 ± 0.03	0.955 ± 0.046	0.91 ± 0.074
UniProt Q9BQA9 and related entries	1.02 ± 0.07	0.937 ± 0.074						
UniProt Q9BUA3	0.993 ± 0.091	1.01 ± 0.075	1.02 ± 0.11	1.03 ± 0.09	1.03 ± 0.082	1.04 ± 0.12	0.992 ± 0.08	1 ± 0.019
UniProt Q99549 and related entries	0.984 ± 0.017	1.04 ± 0.019						
PAFAH2 (UniProt Q99487)	1.06 ± 0.079	1 ± 0.072	1 ± 0.098	1.01 ± 0.074	0.978 ± 0.053	1 ± 0.27	0.992 ± 0.05	1.02 ± 0.064

Taken from the listing for reference:
Target	NP40-soluble protein abundance (concentration: 0.1mM)	NP40-soluble protein abundance (concentration: 0.5mM)	NP40-soluble protein abundance (concentration: 1mM)	NP40-soluble protein abundance (concentration: 2mM)	NP40-soluble protein abundance (concentration: 4mM)	NP40-soluble protein abundance (concentration: 6mM)	NP40-soluble protein abundance (concentration: 8mM)	NP40-soluble protein abundance (concentration: 10mM)
UniProt Q9BV73 and related entries	0.97 ± 0.034	0.966 ± 0.061						
UniProt Q9BRX8 and related entries	1.06 ± 0.12	1.03 ± 0.086						
SDF4 (UniProt Q9BRK5)	0.985 ± 0.057	0.953 ± 0.026						
CCT7 (UniProt Q99832)	0.932 ± 0.1	0.989 ± 0.078						
NABP2 (UniProt Q9BQ15)	0.892 ± 0.11	1.01 ± 0.17						
GPA33 (UniProt Q99795)	0.952 ± 0.065	0.979 ± 0.12						
GTPBP4 (UniProt Q9BZE4)	1.08 ± 0.052	1.17 ± 0.019						
UniProt Q9BX66 and related entries	0.948 ± 0.058	0.932 ± 0.13						
TARS2 (UniProt Q9BW92)	1.07 ± 0.074	1.04 ± 0.048						
UniProt Q9BT22 and related entries	1.03 ± 0.06	1.03 ± 0.053						
UniProt Q99683 and related entries	1.01 ± 0.052	1.032 ± 0.0062						
MND1 (UniProt Q9BWT6)	0.936 ± 0.058	0.886 ± 0.092						
PAIP2 (UniProt Q9BPZ3)	0.979 ± 0.033	0.946 ± 0.034						
CABLES2 (UniProt Q9BTV7)	1.15 ± 0.066	1.09 ± 0.19						

Remaining list, next part

Target	NP40-soluble protein abundance (concentration: 0.1mM)	NP40-soluble protein abundance (concentration: 0.5mM)	NP40-soluble protein abundance (concentration: 1mM)	NP40-soluble protein abundance (concentration: 2mM)	NP40-soluble protein abundance (concentration: 4mM)	NP40-soluble protein abundance (concentration: 6mM)	NP40-soluble protein abundance (concentration: 8mM)	NP40-soluble protein abundance (concentration: 10mM)
UniProt Q99733-2	0.978 ± 0.067	1.01 ± 0.08						
DSCC1 (UniProt Q9BVC3)	1.03 ± 0.025	1.07 ± 0.028	1.04 ± 0.038	1.06 ± 0.011	1.03 ± 0.018	1.01 ± 0.021	1.077 ± 0.0062	1.05 ± 0.037
UniProt Q9BTX1 and related entries	0.985 ± 0.031	1.02 ± 0.012	1.01 ± 0.076	1.01 ± 0.071	1.03 ± 0.1	0.996 ± 0.13	1.06 ± 0.044	1.08 ± 0.084
UniProt Q99996-3|Q99996-5|A0A0A0MRF6|Q99996 and related entries	0.979 ± 0.058	1.01 ± 0.081						
UniProt Q9BTT6	0.999 ± 0.074	0.976 ± 0.062	0.931 ± 0.073	0.916 ± 0.081	0.945 ± 0.049	0.967 ± 0.092	0.961 ± 0.092	0.922 ± 0.045
PECR (UniProt Q9BY49)	0.979 ± 0.061	0.933 ± 0.033	0.965 ± 0.093	0.966 ± 0.037	0.994 ± 0.073	0.984 ± 0.076	1.02 ± 0.053	1.05 ± 0.033
UniProt Q9BTC8 and related entries	1.07 ± 0.066	1.075 ± 0.008						
MECR (UniProt Q9BV79)	1.02 ± 0.014	0.972 ± 0.014	0.969 ± 0.013	0.959 ± 0.056	0.964 ± 0.037	0.957 ± 0.054	0.94 ± 0.013	0.92 ± 0.012
DDX50 (UniProt Q9BQ39)	0.984 ± 0.03	1.19 ± 0.039	1.35 ± 0.086	1.67 ± 0.17	2.19 ± 0.26	2.88 ± 0.35	3.54 ± 0.54	4.32 ± 0.63
UniProt Q9BXI6 and related entries	0.994 ± 0.034	0.958 ± 0.045	0.935 ± 0.035	0.917 ± 0.032	0.927 ± 0.031	0.941 ± 0.038	0.895 ± 0.025	0.925 ± 0.045
UniProt Q99755-3|A6PW57	1.022 ± 0.0041	1.17 ± 0.016						
UniProt Q9BWW4 and related entries	0.964 ± 0.11	0.952 ± 0.078	1.05 ± 0.11	0.958 ± 0.12	0.933 ± 0.12	0.999 ± 0.12	0.956 ± 0.056	0.906 ± 0.1
UniProt Q99653	0.982 ± 0.073	0.939 ± 0.086	0.961 ± 0.041	0.989 ± 0.011	0.983 ± 0.029	0.965 ± 0.054	0.961 ± 0.059	0.931 ± 0.037
UniProt Q9BPX7-2|Q9BPX7	1.05 ± 0.048	1.07 ± 0.036						
DHRS4 (UniProt Q9BTZ2)	1.03 ± 0.021	1.03 ± 0.038	0.9895 ± 0.0086	0.987 ± 0.019	0.989 ± 0.043	0.956 ± 0.028	0.968 ± 0.035	0.988 ± 0.018
FUT8 (UniProt Q9BYC5)	1.06 ± 0.027	1.07 ± 0.027	1 ± 0.035	0.987 ± 0.052	1.02 ± 0.025	0.9889 ± 0.0069	1.04 ± 0.045	1.01 ± 0.039
DDX23 (UniProt Q9BUQ8)	0.976 ± 0.063	1.02 ± 0.084	1.14 ± 0.052	1.23 ± 0.1	1.38 ± 0.13	1.52 ± 0.21	1.69 ± 0.17	1.81 ± 0.2
TM9SF2 (UniProt Q99805)	1.09 ± 0.12	1.06 ± 0.1						
UniProt Q9BTL3	0.899 ± 0.08	0.88 ± 0.026	0.928 ± 0.13	0.882 ± 0.066	0.95 ± 0.059	1 ± 0.11	0.888 ± 0.028	0.869 ± 0.059
UniProt Q9BS26	1.02 ± 0.034	1.02 ± 0.062	0.982 ± 0.043	0.956 ± 0.035	0.943 ± 0.057	0.945 ± 0.067	0.952 ± 0.06	0.941 ± 0.054
UniProt Q9BZ23 and related entries	1.04 ± 0.024	0.986 ± 0.041	0.958 ± 0.079	0.995 ± 0.08	0.937 ± 0.054	0.914 ± 0.05	0.882 ± 0.11	0.91 ± 0.05
QTRT1 (UniProt Q9BXR0)	1.05 ± 0.052	1.05 ± 0.038	1.01 ± 0.12	0.995 ± 0.091	1.02 ± 0.049	0.925 ± 0.14	0.994 ± 0.049	0.985 ± 0.051
PAAF1 (UniProt Q9BRP4)	1.06 ± 0.051	1.05 ± 0.011	1.02 ± 0.037	1.04 ± 0.02	1.01 ± 0.072	0.982 ± 0.02	0.977 ± 0.011	1.01 ± 0.023
UniProt Q9BSW2-2	1.03 ± 0.032	1.02 ± 0.018	0.967 ± 0.041	1.01 ± 0.034	1.02 ± 0.02	1.01 ± 0.018	0.972 ± 0.0098	0.988 ± 0.04
UBAC1 (UniProt Q9BSL1)	0.979 ± 0.013	0.999 ± 0.06	0.988 ± 0.025	1 ± 0.025	1.03 ± 0.033	1.04 ± 0.061	0.965 ± 0.034	0.98 ± 0.038
UniProt Q9BTE6 and related entries	0.992 ± 0.05	1.01 ± 0.047	0.947 ± 0.046	0.965 ± 0.018	0.932 ± 0.015	0.964 ± 0.067	0.928 ± 0.036	0.958 ± 0.025

Given in CSV form: entries from further up.
Target,NP40-soluble protein abundance (concentration: 0.1mM),NP40-soluble protein abundance (concentration: 0.5mM),NP40-soluble protein abundance (concentration: 1mM),NP40-soluble protein abundance (concentration: 2mM),NP40-soluble protein abundance (concentration: 4mM),NP40-soluble protein abundance (concentration: 6mM),NP40-soluble protein abundance (concentration: 8mM),NP40-soluble protein abundance (concentration: 10mM)
TM9SF2 (UniProt Q99805),1.09 ± 0.12,1.06 ± 0.1,,,,,,
UniProt Q9BTL3,0.899 ± 0.08,0.88 ± 0.026,0.928 ± 0.13,0.882 ± 0.066,0.95 ± 0.059,1 ± 0.11,0.888 ± 0.028,0.869 ± 0.059
